# Source: PubChem BioAssay AID1347423 (Functional Genomics Laboratory (NCATS/FGL), 2020)
# In all, about 52,000 sequences went through this assay and about 210 (0.4%) were called active.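 Rule for the calls: active = gene whose silencing raises cell survival under the drug, median off-target-corrected z-score across its silencing RNAs 2 or more; inactive = the rest.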 The list shows a part of the results.
# Test: Resistance to Poly (ADP-Ribose) Polymerase inhibitor: Gene Identification via Genome-wide siRNA Screen
# Details: mouse BRCA2 R2336H ES cells, olaparib, CellTiter-Glo viability; hits give high values
# Method in brief: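 Genome-wide siRNA screen (3 siRNAs/gene, 20 nM) in mouse ES cells carrying hypomorphic BRCA2 R2336H; olaparib 500 nM added 48 h post-transfection, CellTiter-Glo viability 72 h later. Normalized to plate-median negative control; MAD z-scores, gene median, seed-adjusted.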
row,Sequence,z-score
1,GGUUCCUCCAUUGUUGAAATT against Olfr701,inactive: 0.546
2,GCACUUAAUGCAAUAUGGATT against Clock,inactive: -0.134
3,GGUUUUGGAUACCAAAAACTT against 1200020A08Rik,inactive: 0.862
4,CCAACAUGAAGCUUGUCCATT against Zfp259,inactive: 0.217
5,GGAGACUGUCAUGGCUGUGTT against Olfr397,inactive: -0.0371
6,GCUAAUUCCCUGAAAGAUGTT against Rnf13,inactive: -0.807
7,GCAUAGCUCAUCAUUCGGCTT against Wfdc5,inactive: 0.14
8,GGAGAUCCUGGCAAAAUACTT against Rutbc3,inactive: -0.352
9,CACUCAGCUCAAUGACCUGTT against Ifna14,inactive: -0.514
10,CCUCAGAAUAAAUGAAUCCTT against 1810049H13Rik,inactive: 3.26
11,GCCCAGUCAUUCCUACCAATT against Hoxc13,inactive: -0.318
12,CCGUCCUCAGUUAUCUCUATT against Sorcs3,inactive: -0.434
13,CCAGAACGGAAGAUGAUCATT against Slc4a1,inactive: -0.685
14,CCAAAUGAAGCUCUGAAGATT against B130008E12Rik,inactive: -0.125
15,GGAGAACUACAGUCUUAUUTT against Slc39a12,inactive: -1.04
16,GGAGGGAAAAGAGAAGAAATT against Rbm10,inactive: 1.8
17,GGAUGAUGACUUCCUAGGGTT against Cpne7,inactive: 0.407
18,GAAAAGAAUUCCAGAAGAUTT against Sec61g,inactive: -1.54
19,GCUUUUCAAACACAGUAGATT against Dlx3,inactive: 1.07
20,GCGAGUGAUUGAGGAUCCCTT against 2610027O18Rik,inactive: 0.29
21,CGCUCACUGGUUUUUAAUUTT against E030018N11Rik,inactive: 1.42
22,GCCUUUCAAUCCUGAUUAATT against Rgs10,inactive: -0.71
23,GGAAUUUGGACAAAUUGAATT against A630086M08Rik,inactive: -0.249
24,CGCAGAUGAUUAAGUUGGUTT against Olfr1000,inactive: -0.729
25,GCUACUUAUCUGUUGGAAUTT against C330026N02Rik,inactive: -0.5
26,CCAGGAAUCAGUCUAUACUTT against Lrrc15,inactive: 0.689

# Reformatted bar-delimited: entries from further up.
row | Sequence | z-score
1 | GGUUCCUCCAUUGUUGAAATT against Olfr701 | inactive: 0.546
8 | GGAGAUCCUGGCAAAAUACTT against Rutbc3 | inactive: -0.352
13 | CCAGAACGGAAGAUGAUCATT against Slc4a1 | inactive: -0.685

# (cont.)

row,Sequence,z-score
1,GCUCGAGGCUUAGAAGACUTT against Hspb3,inactive: -0.609
2,GGUGUACUGAUUUUGAAGATT against Msh3,inactive: -0.529
3,GGACAAGUUUGAUGGAUCGTT against Rcor3,inactive: 0.723
4,CCGUUGGAGUCCAACCUAUTT against Ube2a,inactive: -0.479
5,GCGCAAGAUUCUCCAGCUUTT against Qars,inactive: -2.99
6,GCCGGCUGUAUUCAGUACGTT against Hoxc9,inactive: -0.44
7,GCUUCAACUCUUUUCAGAGTT against F830208F22Rik,inactive: 0.196
8,GGAUCAGGACAAUGAACUGTT against Ap1s2,inactive: -0.328
9,GGUUUUUGCCAAACUCUUUTT against D19Wsu162e,inactive: 1.92
10,GAUUUUCUUUGUUCAUCUCTT against Olfr727,inactive: -0.431
11,GGUAUAAACUCUAAAUGCUTT against Tpk1,inactive: -0.0512
12,GGACAUGUCCGAAUACUACTT against Tprt,inactive: -0.613
13,GCCAGGAUACUAAGUGUUUTT against D17Ertd441e,inactive: 0.673
14,CCAGAGUAAGAGUAAAAGCTT against Mamdc2,inactive: 1.32
15,GCCUCUUAAUUUUAAGCUGTT against Gpr82,inactive: -0.563
16,GGCCCUGACAGAGGAAAAATT against Impa2,inactive: -0.555
17,CGGGAUAGACAUGAGAGCUTT against Tmem2,inactive: 0.928
18,GGAUGAAUUUGGAGUUUCUTT against 1700045I19Rik,inactive: -0.497
19,GGAACGGAUUCUAUCCAAUTT against Mosg,inactive: 0.142
20,GCGUGGCCGUCAAAGAGUATT against Basp1,inactive: -0.394
21,GGACCGCUACUAUUCAGGATT against Myh10,inactive: 1.14
22,GGACCUAAAGAAUUCAUCGTT against 9030205A07,inactive: 0.58
23,GGCACCUGUUAAAAAUGAATT against D8Ertd82e,inactive: 1.95
24,GGAAAGCUUACAAAUAUGCTT against 1500002I11Rik,inactive: 0.00152
25,CCUUAAACUAGAAUUGUGUTT against Grap2,inactive: 1.24
26,GGAUUUUACAGUUUUUGGATT against Pccb,inactive: -0.438

row,Sequence,z-score
1,CCUAGCUGAGGUGAACAACTT against Spr,inactive: 0.543
2,CCUCACAUAUACUGAGCUUTT against Zc3hdc1,inactive: -2.38
3,GGUUAUCAAGAAAAUUGGGTT against Exo1,inactive: -0.156
4,GGCCAUCGAUUUUGAAUACTT against 5830446M03Rik,inactive: -0.0599
5,GUGACAGGAUAUGUUUCUATT against Cd226,inactive: 0.503
6,GGUUUGGAGAUAUCGUGGGTT against Bmper,inactive: 0.801
7,GGGACAUCAAUCGUAUUUUTT against Adar,inactive: -0.524
8,GGAAACAACAACAAAUACATT against C1ql3,inactive: -0.604
9,GGUCUUUCCCAGGAUUCCATT against Rab19,inactive: -1.98
10,GGCAUGAAGUUUGAAGCCATT against Cnnm2,inactive: 0.156
11,GCGGGUAACCUCAUGUCUUTT against Phyhip,inactive: 0.347
12,GGUGGAAACAGAAUGGUACTT against Cntn6,inactive: -0.295
13,CGACGAAGACGUGAACAAGTT against Trappc3,inactive: -2.14
14,CGCACAGAGAAUAAGGGAATT against Tcta,inactive: 0.956
15,GGCAGUUUUAUGAACUAUUTT against AI854635,inactive: 0.377
16,GGAUGGUAACCAUCAUAUUTT against V1ra9,inactive: -0.292
17,GGAACCUUUUAUUCAAGAATT against Cklfsf3,inactive: 1.06
18,GGCCUGGUGCUACUUCUCATT against 4632419K20Rik,inactive: -2.2
19,GGCUGGUGAAAGUCAAGGUTT against Rbbp1,inactive: -0.247
20,GCUUUUGGGUUGUAAGAGATT against Ralgps2,inactive: 0.0808
21,GGACAUGUUGGAGAAGCAATT against B3galt6,inactive: 1.43
22,CCAGAAAAAAGAUUGUACATT against Hesx1,inactive: 0.891
23,GGAGUGGGAAAACAACAAATT against Cpxm1,inactive: 0.176
24,GCAACAAUUGCUAGCGUGGTT against Sec23ip,inactive: 1.12
25,UUUACUAGACCUGAUGGCUTT against Olfr815,inactive: 0.0206
26,GGAUCUCAGCUUCACUCCUTT against Noc4,inactive: 0.818

row,Sequence,z-score
1,GGGCAUAUUCAAACUUGUGTT against Elf2,inactive: 0.52
2,GCAGUUCUCAUACUAUCAUTT against Gm1082,inactive: -0.986
3,GCCGCUGCACACUUUCUAUTT against 4732463G12Rik,inactive: -1.18
4,GCCCUUAGCUGCAUGAAUUTT against Laptm4b,inactive: 1.41
5,GCUGCCCGACCAAACAUUUTT against Mtch1,inactive: -0.769
6,GGAAUUGUUAAGGACGUAGTT against Nupl2,inactive: 0.0322
7,GGAUGGCCUGGCCUUCAAUTT against Spnb1,inactive: -0.0598
8,GGAGAAGAACUAAAACUUATT against Bbs7,inactive: 1.8
9,GGGUGAUGAGAUCUGUCUGTT against Rent1,inactive: -1.04
10,GAAGCCUGGAAGGAAAACUTT against 1190017O12Rik,inactive: -0.267
11,CGAAUGCAACAUGUGAUGUTT against Gm83,inactive: 0.607
12,CCAUUGAGACUUUUGCCAATT against Gabbr1,inactive: 1.26
13,GGCCUGUAUUUAGAUGUAUTT against Pts,inactive: -1.96
14,GGAAGAGACAACAGCUAUCTT against B3galt4,inactive: 0.0714
15,GCGGAUUCGACAACAACAGTT against Mpp5,inactive: -0.0832
16,GGCUCUCAGCUGAAAGAAATT against 2810046M22Rik,inactive: -1.13
17,GGGUAUCAAUCUUAGGUUATT against LOC208158,inactive: 0.273
18,GGAAUUGUUUGUGCUGCUUTT against Mapk9,inactive: -2.34
19,GGAGAAAGGAUCUCAGUGUTT against C030011O14Rik,inactive: -2.69
20,CCAAGUCUACCUCUAUUUUTT against Pbsn,inactive: 0.471
21,GGCAAAUGUACUAAAAUGATT against Gpr34,inactive: -0.206
22,GCGAUGAAAUCUAAAGCCATT against Gpr146,inactive: 0.173
23,GCCACAUGGUUAAUAAGAGTT against Postn,inactive: -1.23
24,GGCUGAUGAGUAUAGUUUATT against Serpini2,inactive: -0.656
25,GCUCUGUGUUCUUAGGAGATT against Gaa,inactive: 1.09
26,GGUUCUCACCACUGUAGACTT against BC061928,inactive: 0.258

# Two entries drawn at random from the list so far:
row,Sequence,z-score
20,GCGAGUGAUUGAGGAUCCCTT against 2610027O18Rik,inactive: 0.29
10,GGCAUGAAGUUUGAAGCCATT against Cnnm2,inactive: 0.156

# Part of the list above, as tab-separated lines:
row	Sequence	z-score
8	GGAGAAGAACUAAAACUUATT against Bbs7	inactive: 1.8
9	GGGUGAUGAGAUCUGUCUGTT against Rent1	inactive: -1.04
